Assay results taken from the supplement of paper PMC3334620.
The full ranking holds about 33,000 sequences; the median of “E-score (-0.5 to 0.5)” is about -0.0034, and the highest 2% start at about 0.25. The list shows a part of the results.

The sequences below were run against T1, Yap3 (UniProt P38749) (assay: PBM E-score (8-mer binding enrichment) (E-score (-0.5 to 0.5)); higher = stronger / more preferred TF binding). Settings: protein concentration: 100 nM; construct: GST-full length.
T1 sequence: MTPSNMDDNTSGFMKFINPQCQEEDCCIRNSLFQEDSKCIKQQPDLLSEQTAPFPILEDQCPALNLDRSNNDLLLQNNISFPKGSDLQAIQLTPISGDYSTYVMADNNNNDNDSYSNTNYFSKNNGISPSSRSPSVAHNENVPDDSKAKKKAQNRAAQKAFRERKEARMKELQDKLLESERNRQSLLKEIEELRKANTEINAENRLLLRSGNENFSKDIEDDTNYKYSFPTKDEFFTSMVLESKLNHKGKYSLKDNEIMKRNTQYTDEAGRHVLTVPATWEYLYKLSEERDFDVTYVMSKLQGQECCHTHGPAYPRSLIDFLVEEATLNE
In short: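 Masliner-normalised scans of fluorescent anti-GST signal were the basis for scoring. That signal came from GST-tagged yeast transcription factors applied at about 100-200 nM to double-stranded universal all-10-mer Agilent arrays on fresh or once-stripped slides. Each ungapped eight-base word, pooled with its reverse complement, received an E-score from the Universal PBM Analysis Suite.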

Sequence | PBM E-score
AGAATTCA | -0.00765
CTTCTGGA | -0.0873
ATCAGCCG | -0.181
ACATCCGC | 0.0197
TGGGAGAA | -0.174
ACAGGAGA | 0.0418
CATCCGAC | -0.0371
ACAGGATG | 0.152
ACTCCCAG | 0.0568
GACATGCC | -0.129
AGAAATCT | 0.147
GTCATCTA | 0.00466
ATAAGGAA | 0.0433
GGGATTAA | 0.0796
CAATAGCG | -0.00331
CTATTAAC | 0.188
AGCCCTAC | 0.0007
GTGTTGCA | 0.0357
ATCAACAG | 0.132
AGATAGAA | 0.111
ACACTATA | 0.138
CATGAGGC | -0.111
GTCTATAA | 0.129
AGCTCCAT | -0.13
GGTATATA | 0.239

Sequence | PBM E-score
CTTATCGA | 0.174
TAAACCCA | 0.114
CTCCGTGC | -0.237
ACAGGGAC | -0.168
GAGTCAGC | -0.0237
CCTAGGAC | -0.0486
CCCCTCAC | -0.203
GCGATGCC | -0.287
GTGAGCAA | -0.0315
AAGAGCGT | 0.108
GCTACGCA | -0.198
ATTCACAC | 0.135
GCTTCTGA | 0.054
GGAACTTA | 0.111
AGACATGA | 0.0384
AGCATATG | -0.0618
ATTGGGGC | -0.0386
AAGGCCCG | -0.298
AAGATAGG | -0.0546
ACAAATCG | 0.0463
CCGCAAGC | -0.195
GTCGCGAC | 0.324
AACCTATG | -0.0273
AGCTTAAA | -0.0384
CGGTAAGC | -0.0446

Sequence | PBM E-score
GAAATTCA | 0.116
ACTGATTC | -0.0161
CACGTGCA | 0.00791
CTTAGCAA | -0.0494
AACGTGCC | -0.0468
GGCACTGA | -0.0265
AGCTTCTG | -0.178
CTAACTTC | 0.0236
AGAACATC | 0.11
AATGTGCG | 0.15
ACAAAGGC | -0.0378
ATGAGGGC | -0.0291
GGACCTCA | -0.0617
GCTTCAAA | -0.0578
AACAACAT | 0.191
GCGCTTAC | -0.0325
CACCCGCA | -0.187
AGATTTTG | 0.0721
CACAGAGC | -0.163
GACATAAC | 0.22
GGGCTACA | -0.152
TGCGGACA | 0.175
ACTCAAGT | -0.0333
AGTGTAGG | 0.00332
CAACGCCC | -0.162

Nothing new here: an excerpt of the list.
Sequence | PBM E-score
ATTGGGGC | -0.0386
AAGGCCCG | -0.298
AAGATAGG | -0.0546
ACAAATCG | 0.0463
CCGCAAGC | -0.195
GTCGCGAC | 0.324
AACCTATG | -0.0273
AGCTTAAA | -0.0384
CGGTAAGC | -0.0446
GAAATTCA | 0.116
ACTGATTC | -0.0161
CACGTGCA | 0.00791
CTTAGCAA | -0.0494
AACGTGCC | -0.0468
GGCACTGA | -0.0265
AGCTTCTG | -0.178
CTAACTTC | 0.0236
AGAACATC | 0.11
AATGTGCG | 0.15
ACAAAGGC | -0.0378
ATGAGGGC | -0.0291
GGACCTCA | -0.0617
GCTTCAAA | -0.0578
AACAACAT | 0.191
GCGCTTAC | -0.0325
CACCCGCA | -0.187
AGATTTTG | 0.0721
CACAGAGC | -0.163
GACATAAC | 0.22
GGGCTACA | -0.152
TGCGGACA | 0.175
ACTCAAGT | -0.0333
AGTGTAGG | 0.00332

Next entries

Sequence | PBM E-score
TAAACAAA | 0.195
CGGCTTGA | -0.0693
AAATTCGC | 0.129
CGCTGCTC | -0.133
CCTTAATC | -0.0898
CGGATATA | 0.189
CTTTGGAA | -0.0122
CTACAATC | 0.193
ATCGCGTG | 0.132
CAATACAG | 0.0498
CCGACAGG | -0.0616
GGCCAGTA | -0.0503
AGATCCCG | 0.0457
AAGGTTAG | 0.101
CGATCAGC | -0.0555
AGGCTACA | -0.0383
ACTCTCAA | -0.108
CAGGGCCC | -0.218
CGTATTTA | 0.313
ACTTAAAG | -0.1
ACCACCCC | -0.0856
AATGTTAT | 0.222
CCTTACCA | 0.00813
CCAGCACC | -0.26
CACCTCTA | 0.158

Sequence | PBM E-score
CTGTTAAC | 0.216
CGTAGCCC | -0.117
ATTTAACG | 0.204
GAAACCGC | 0.00609
AATGTTGG | 0.0757
AAGGGCCT | -0.251
GCACTACA | -0.112
ATCGATTA | 0.218
CCAATGCC | -0.162
ACGTATCT | -0.0974
TCGGAACA | 0.185
GGGGCTGA | -0.167
ACTCCTAG | -0.232
ATGACACC | -0.0117
AGAGTCGC | 0.019
GAGCGTCC | -0.223
AATGGACG | 0.167
ACTAACGC | 0.0336
AACAAGAC | 0.0841
AGCTCCGC | -0.109
GACTGATA | -0.0592
CGGTACAC | -0.123
AACGGCGA | 0.252
GGGCATCA | -0.242
CTGATGTC | 0.0994

Sequence | PBM E-score
ACTGAACC | -0.125
CACTGGGA | -0.0348
TAGTTCCA | 0.14
AATATCTG | 0.084
ATTCTTCA | 0.0724
AGGGGGGA | -0.261
AATGGTGC | -0.146
GAATCCCA | 0.107
TCGTTCAA | 0.0575
CTATTAAA | 0.135
AATTAGTG | 0.269
CCTGGCAC | -0.155
ATTGCTGC | 0.0525
CAACCCTC | -0.0647
CCCGGCTA | -0.2
GGTTAACA | 0.1
AGTATAAC | -0.0565
CGGAGTCA | -0.0856
CAGGGCCG | -0.22
ATTGTCCA | 0.0865
AGGTTTAG | 0.0249
AACAATTC | 0.106
CGCGCGGC | 0.167
CAAAAAGC | 0.129
ATCTTAAC | 0.125

Sequence | PBM E-score
TATCCCGA | 0.149
CAGGTCTC | -0.112
CTAGAAGC | -0.191
CCAGTAGA | 0.107
GGATCTTA | 0.0326
ATCATAAC | 0.144
AGCATTCG | -0.106
AGAAGCTG | -0.112
ACCTTAGA | -0.006
AGTAGAAC | -0.163
ACAGATTA | -0.0494
AGGATGCC | -0.186
GCAGCATA | -0.0295
CCCCTACA | -0.226
ACGCAAAA | 0.189
AGTTTCAT | 0.173
TACAGACA | 0.0564
TGACGACA | 0.0856
CCCGCGCA | -0.0859
GGTTTTAC | -0.221
CCTTCCGA | -0.16
CCACCGCA | -0.102
